Among the data in PMC5324115 are binding values, retold here.

In assay [1] the target is T1, HisFtsW (E. coli FtsW with N-terminal His-tag) (E. coli) (UniProt P0ABG4).
T1 sequence: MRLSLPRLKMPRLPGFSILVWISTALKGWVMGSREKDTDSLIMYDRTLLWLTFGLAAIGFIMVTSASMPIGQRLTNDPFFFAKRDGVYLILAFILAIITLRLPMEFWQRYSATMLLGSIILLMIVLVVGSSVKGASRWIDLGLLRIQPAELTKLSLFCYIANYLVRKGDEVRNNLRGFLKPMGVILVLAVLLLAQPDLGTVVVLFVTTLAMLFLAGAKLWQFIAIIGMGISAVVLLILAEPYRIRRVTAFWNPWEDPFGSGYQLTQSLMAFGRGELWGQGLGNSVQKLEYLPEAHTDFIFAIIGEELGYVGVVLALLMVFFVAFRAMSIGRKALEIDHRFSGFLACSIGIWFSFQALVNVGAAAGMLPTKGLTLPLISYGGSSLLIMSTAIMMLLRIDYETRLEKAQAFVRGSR
Description: pull-down; co-expression in E. coli; membranes solubilised with 40 mM LMNG; Ni-affinity column in 50 mM Hepes pH 7.5, 200 mM NaCl, 10% glycerol, 0.2 mM LMNG; imidazole elution; fractions labelled with fluorescent ampicillin, SDS-PAGE.

The target in assay [2] is T2, HisPBP3 (E. coli PBP3, FtsI, with N-terminal His-tag) (E. coli) (UniProt P0AD68).
T2 sequence: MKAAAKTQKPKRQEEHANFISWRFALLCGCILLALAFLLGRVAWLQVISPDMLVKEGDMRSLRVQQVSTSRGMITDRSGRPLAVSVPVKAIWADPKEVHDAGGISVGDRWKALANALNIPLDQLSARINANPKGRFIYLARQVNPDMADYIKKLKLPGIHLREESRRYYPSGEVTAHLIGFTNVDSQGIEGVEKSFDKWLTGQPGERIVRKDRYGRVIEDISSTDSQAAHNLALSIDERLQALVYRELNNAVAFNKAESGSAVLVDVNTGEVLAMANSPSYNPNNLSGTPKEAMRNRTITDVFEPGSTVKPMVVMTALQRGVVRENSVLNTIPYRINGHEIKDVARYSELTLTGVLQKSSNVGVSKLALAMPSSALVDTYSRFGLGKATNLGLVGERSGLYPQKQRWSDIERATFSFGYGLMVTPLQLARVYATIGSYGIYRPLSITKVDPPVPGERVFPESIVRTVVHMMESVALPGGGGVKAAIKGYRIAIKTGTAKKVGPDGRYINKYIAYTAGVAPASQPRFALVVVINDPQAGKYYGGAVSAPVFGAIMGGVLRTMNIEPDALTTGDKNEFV
The assay is described as above.

The target in assay [3] is T2, HisPBP3 (E. coli PBP3, FtsI, with N-terminal His-tag) (E. coli). Briefly: pull-down; co-expression in E. coli C43 (DE3); membranes solubilised with 40 mM DDM; Ni-affinity (HisTrap) column in 50 mM Hepes pH 7.5, 300 mM NaCl, 10% glycerol, 50 mM imidazole, 1 mM DDM; imidazole elution; fractions labelled with fluorescent ampicillin, SDS-PAGE (anti-HA blot of the flow-through for FtsWHA).

The target in assay [4] is T3, FtsW (E. coli, untagged) (E. coli) (UniProt P0ABG4).
T3 sequence: T1 sequence
Description: pull-down; co-expression in E. coli; membranes solubilised with 40 mM LMNG; Ni-affinity column in 50 mM Hepes pH 7.5, 200 mM NaCl, 10% glycerol, 0.2 mM LMNG; imidazole elution; fractions labelled with fluorescent ampicillin, SDS-PAGE.

No constants are given. Whether binding was seen depends on the method and setting. In cells and extracts the contact can be indirect. Some entries that bind do so weakly or less than the wild type. Tags and fused reporters may be left off the sequences shown.

B1: native E. coli PBP3 (enzyme, UniProt P0AD68 1-577)
chain: T2 sequence
B1: the binding result in assay [1] was “binds”.

B2: FtsW (E. coli, untagged) (protein, UniProt P0ABG4 1-414)
chain: T1 sequence
For the molecule B2, the binding entry in assay [2] and in assay [3] was “binds” each time.

B3: PBP1b (E. coli, untagged) (enzyme, UniProt P02919 1-844)
chain: MAGNDREPIGRKGKPTRPVKQKVSRRRYEDDDDYDDYDDYEDEEPMPRKGKGKGKGRKPRGKRGWLWLLLKLAIVFAVLIAIYGVYLDQKIRSRIDGKVWQLPAAVYGRMVNLEPDMTISKNEMVKLLEATQYRQVSKMTRPGEFTVQANSIEMIRRPFDFPDSKEGQVRARLTFDGDHLATIVNMENNRQFGFFRLDPRLITMISSPNGEQRLFVPRSGFPDLLVDTLLATEDRHFYEHDGISLYSIGRAVLANLTAGRTVQGASTLTQQLVKNLFLSSERSYWRKANEAYMALIMDARYSKDRILELYMNEVYLGQSGDNEIRGFPLASLYYFGRPVEELSLDQQALLVGMVKGASIYNPWRNPKLALERRNLVLRLLQQQQIIDQELYDMLSARPLGVQPRGGVISPQPAFMQLVRQELQAKLGDKVKDLSGVKIFTTFDSVAQDAAEKAAVEGIPALKKQRKLSDLETAIVVVDRFSGEVRAMVGGSEPQFAGYNRAMQARRSIGSLAKPATYLTALSQPKIYRLNTWIADAPIALRQPNGQVWSPQNDDRRYSESGRVMLVDALTRSMNVPTVNLGMALGLPAVTETWIKLGVPKDQLHPVPAMLLGALNLTPIEVAQAFQTIASGGNRAPLSALRSVIAEDGKVLYQSFPQAERAVPAQAAYLTLWTMQQVVQRGTGRQLGAKYPNLHLAGKTGTTNNNVDTWFAGIDGSTVTITWVGRDNNQPTKLYGASGAMSIYQRYLANQTPTPLNLVPPEDIADMGVDYDGNFVCSGGMRILPVWTSDPQSLCQQSEMQQQPSGNPFDQSSQPQQQPQQQPAQQEQKDSDGVAGWIKDMFGSN
Turning to B3, the binding result in assay [4] and in assay [1] was “binds” in each case.
